{"source": "patent US7888089B2", "about": "“eNOS mutations useful for gene therapy and therapeutic screening” (Yale University, priority 1999, dated 2011)", "test_system": "Akt", "assay": "32P phosphorylation of eNOS in intact transfected COS cells", "type": "cell-based", "conditions": "wortmannin 500 nM", "protocol": "Phosphorylation studies in vivo and in vitro: For in vivo phosphorylation studies, COS cells were transfected with the cDNAs for wild-type or S635, 1179A eNOS and HA-Akt overnight. 36 hrs after transfection, cells were placed into dialyzed serum replete, phosphate-free Dulbecco's minimum essential medium supplemented with 80 μCi/ml of ^32P orthophosphoric acid for 3 hr. Some cells were pretreated with wortmannin (500 nM) in the phosphate-free media for 1 hr and during the labeling.", "note": "For at least one compound, name, drawing or mass did not settle the structure."}
{"smiles": "COC[C@H]1OC(=O)c2coc3c2[C@@]1(C)C1=C(C3=O)[C@@H]2CCC(=O)[C@@]2(C)C[C@H]1OC(C)=O", "note": "[wortmannin, reference compound]", "values": [{"measurement": "Akt dependent phosphorylation of eNOS in intact cells", "value": "abolished the Akt induced increase in phosphorylation"}]}
